Source: PubChem BioAssay AID1487 (National Center for Advancing Translational Sciences (NCATS), 2009)
Where “and” joins values, the source holds several entries; their conditions need not be identical. Equal entries are not always repeated. The campaign covered roughly 200,000 compounds. About 25 (0.01%) were called active. The shares of active, inactive and inconclusive entries below differ from those in the screen. The call rests on the fitted dose curve; in most records, active means well fitted inhibition curve with a large enough effect in the signal ratio, with a control signal flat (not every such curve was filed as active); inconclusive means small, poorly fitted or top-dose-only effect, or effect the other way, or a change in a side signal; inactive means flat fitted curve, though single readings scatter; the % refers to the signal ratio. Where the call is inconclusive, the potency comes from a doubtful curve fit.

Test: qHTS Assay for Modulators of Lamin A Splicing
Details: HeLa LMNA splicing GFP/RFP minigene ratio, 48 h; ratio change, negative = inhibition: at 46.1 µM (top of the series) unless noted
Outline: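 Read-out is the ratio of GFP to DsRed2 object intensity, acquired by 488 nm laser-scanning cytometry on HeLa lamin A-EGFP minigene reporter cells. Compound incubation 48 hrs at 37 °C in Opti-MEM with 2% FBS; DMSO 0.5% final.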
On the % scale 0 is the no-effect control and ±100 the full control effect; potency means the concentration at half of the fitted maximal effect.

Row | SMILES | ratio change, negative = inhibition | Potency
1 | COC(=O)c1ccccc1NC(=O)C(=O)NCC1CCCO1 (stereo not given) | inactive | –
2 | C[n+]1ccccc1/C=N\O | inconclusive: -15.1% | –
3 | Cc1ccc(N2C(=N)SCC2=O)cc1Cl | inactive | –
4 | C=CCn1c(=O)c(C(=O)NCCNCC)c(O)c2ccccc21 | inactive | –
5 | Cc1ccc(NC(=O)c2cccc(OCc3c(C)noc3C)c2)c(C)c1 | inconclusive: -28.8% | –
6 | CCCCOc1ccc(CN2CCC(O)CC2)cc1 | inactive | –
7 | Cc1nnc(NC(=O)COc2ccc3c(C)cc(=O)oc3c2)s1 | inactive | –
8 | S=C(NC1CCCCC1)N1CCN(c2ncccn2)CC1 | inconclusive: 26.5% [at 46 µM] | –
9 | COc1ccc2nc(Nc3nc(-c4ccncc4)cs3)sc2c1 | inconclusive: -2.14% [at 46 µM] | –
10 | COc1ccc2ccc(=O)oc2c1CC=C(C)C | inactive | –
11 | CCOc1ccc(NC(=O)CN2CCN(CC(=O)Nc3ccc4c(c3)OCO4)CC2)cc1 | inactive | –
12 | O=C1C=C(c2ccccc2)C[C@H](c2cccs2)[C@H]1n1nnc([N+](=O)[O-])n1 | – | inconclusive: 8.91 µM [inhibitor, partial curve]
13 | CC1(C)CC[C@]2(C(=O)O)C(O)C[C@@]3(C)C(=CCC4[C@@]5(C)CCC(O)C(C)(C)C5CC[C@@]43C)C2C1 (stereo not given in full) | inconclusive: -3.44% | –
14 | O=C1/C(=C/c2ccc(N3CCCC3)cc2)NC(=S)N1C1CC1 | inconclusive: 10.3% | –
15 | CCNc1ncc2nc(-c3cccs3)c(=O)n(CCC#N)c2n1 | inconclusive: -9.82% | –
16 | O=c1[nH]c(SCc2n[nH]c(=S)n2-c2ccccc2)nc2ccccc12 | inactive | –
17 | Cc1cc(NC(=O)c2cc(-c3cccnc3)nc3c(C)c(C)ccc23)no1 | inconclusive: 34.2% | –
18 | CC1=C(/C=C/C(C)=C/C=C/C(C)=C/C(=O)O)C(C)(C)CCC1 | inconclusive: -12.9% and inconclusive: -36.1% | –
19 | COc1ccc(N2CC(O)=C(c3nc(-c4ccc(Br)cc4)cs3)C2=N)cc1 | inconclusive: -13.8% [at 46 µM] | –
20 | S=c1[nH]nc(CSCc2ccccc2Cl)n1-c1ccccc1 | inactive | –
21 | Cc1cc(C)c(Cc2c(C)nc3c(C(=O)NCc4ccco4)cnn3c2C)c(C)c1 | inconclusive: 42.6% | –
22 | S=c1[nH]nc(-c2ccccc2Cl)n1Cc1ccccc1 | inconclusive: 10.5% [at 46 µM] | –

Three entries from above, arranged by SMILES length, descending:
Row | SMILES | ratio change, negative = inhibition | Potency
14 | O=C1/C(=C/c2ccc(N3CCCC3)cc2)NC(=S)N1C1CC1 | inconclusive: 10.3% | –
15 | CCNc1ncc2nc(-c3cccs3)c(=O)n(CCC#N)c2n1 | inconclusive: -9.82% | –
6 | CCCCOc1ccc(CN2CCC(O)CC2)cc1 | inactive | –

More entries.

Row | SMILES | ratio change, negative = inhibition | Potency
23 | COc1ccc(Cl)cc1N(C(=O)Nc1cccc(Cl)c1)C1=NCC(C)S1 (stereo not given) | inactive | –
24 | CCCCn1c(SCC(=O)Nc2ccccc2C(F)(F)F)nc2ccsc2c1=O | inactive | –
25 | O=C(NCCc1ccc(Cl)cc1)c1n[nH]c2ccccc12 | inconclusive: -40.5% [at 46 µM] | –
26 | O=C(COc1ccc([N+](=O)[O-])cc1)NCCC1=CCCCC1 | inactive | –
27 | O=C(NCCCN1CCOCC1)c1ccc(Br)cc1 | inactive | –
28 | O=C(CSc1nc2c([nH]c3ccccc32)c(=O)n1-c1ccccc1)NCc1ccc(F)cc1 | inactive | –
29 | O=C(O/N=C\c1ccc(N2CCCCC2)c([N+](=O)[O-])c1)c1c(F)cccc1F | inconclusive: 7.13% | –
30 | CCOc1ccc(N2C(=O)CC(Sc3nc(C)cc(C)c3C#N)C2=O)cc1 (stereo not given) | inconclusive: -3.8% | –
31 | COc1ccccc1NC1=NC(C)(C)N=C(N)N1 | inconclusive: 5.72% | –
32 | O=S(=O)(c1cccc(-c2nnc(SC(F)F)n2-c2ccccc2)c1)N1CCCCC1 | inconclusive: -32.5% | –
33 | Cc1sc2nc(N)sc2c1C | inactive | –
34 | NNC(=O)c1cnn(-c2ccccc2)c1-n1cccc1 | inconclusive: 3.25% [at 46 µM] | –
35 | CN(C)c1ccc(C=Nc2ccccc2C(N)=O)cc1 | inconclusive: 29.9% | –
36 | COc1ccc(NC(=O)Cn2nc3c(cc2=O)CCCC3)cc1Cl | inconclusive: -18.3% [at 46 µM] | –
37 | CC1=C(c2ccc(F)cc2)S(=O)(=O)N=C1N1CCC(C(=O)NCCc2ccccc2)CC1 | inconclusive: -10.4% [at 46 µM] | –
38 | Cc1ccc2c(CC(=O)NCC(C)(C)N3CCOCC3)coc2c1 | inconclusive: 14.6% [at 46 µM] | –
39 | CC(C)(C)c1ccc(C(=O)NNc2ncnc3c2cnn3-c2ccc(Cl)cc2)cc1 | inconclusive: 54.4% [at 46 µM] | –
40 | O=c1c2nnn(Cc3ccc(Cl)cc3)c2ncn1Cc1ccc(F)cc1 | inactive | –
41 | CC(O)C(O)[C@H]1CNc2nc(N)[nH]c(=O)c2N1 (stereo not given in full) | inconclusive: -13.2% | –
42 | Cc1cc([N+](=O)[O-])ccc1-c1ccc(C2Nc3ccccc3C(=O)N2O)o1 (stereo not given) | inconclusive: -25.8% | –
43 | O=C(CSc1nc2c([nH]c3ccccc32)c(=O)n1-c1ccccc1)N1CCCc2ccccc21 | inconclusive: 0.707% [at 46 µM] | –
44 | CCOc1ccc(Br)cc1S(=O)(=O)Nc1cccc(S(=O)(=O)NC2=NCCC2)c1 | inconclusive: -2.59% [at 46 µM] | –

A different layout for some results above.
S=c1[nH]nc(CSCc2ccccc2Cl)n1-c1ccccc1
  ratio change, negative = inhibition: inactive
Cc1cc(C)c(Cc2c(C)nc3c(C(=O)NCc4ccco4)cnn3c2C)c(C)c1
  ratio change, negative = inhibition: inconclusive: 42.6%
S=c1[nH]nc(-c2ccccc2Cl)n1Cc1ccccc1
  ratio change, negative = inhibition: inconclusive: 10.5% [at 46 µM]

Later entries

Row | SMILES | ratio change, negative = inhibition | Potency
45 | CCOC(=O)C1CCN(C(c2ccc(C)cc2)c2c(O)cc(C)n(CCOC)c2=O)CC1 (stereo not given) | inconclusive: 14.4% [at 46 µM] | –
46 | O=C(COC(=O)C1=COCCO1)Nc1cccc(Oc2ccccc2)c1 | inconclusive: 12.3% | –
47 | CCO/C([O-])=N/c1c[n+](N2CCOCC2)no1 | inconclusive: 7.15% | –
48 | Cc1c(CC(Cl)(Cl)Cl)c2c(n1O)CC(C)(C)CC2=O | inconclusive: 3.81% | –
49 | O=C(Nc1nnc(SCc2cccc(F)c2)s1)c1ccco1 | inconclusive: 4.78% [at 46 µM] | –
50 | NC(=O)CNCCC(c1ccccc1)c1ccccc1 | inconclusive: -20.9% | –
51 | CCN(CC)S(=O)(=O)c1ccc(Oc2ccc(S(=O)(=O)N(CC)CC)cc2)cc1 | – | inconclusive: 2.51 µM [falling, full curve]
52 | COc1ccc(C2CC(c3ccco3)n3ncnc3N2)cc1 (stereo not given) | inconclusive: -25.8% | –
53 | O=C1/C(=C/c2ccccc2O)SC(=S)N1Cc1cccnc1 | – | inconclusive: 28.2 µM [inhibitor, partial curve, poor fit]
54 | CCn1c([N+](=O)[O-])nc2c1c(=O)[nH]c(=O)n2C | – | inconclusive: 35.5 µM [rising, single point]
55 | Cc1ccc(NC(=O)C2CCN(c3nc(-c4ccc(C(C)C)cc4)no3)CC2)c(Cl)c1 | inconclusive: 31% [at 46 µM] | –
56 | CCc1cccc(CC)c1NC(=O)CN1C2CCCC1CC(NC(=O)Nc1cccc(OC)c1)C2 (stereo not given) | inconclusive: 14.9% [at 46 µM] | –
57 | Cc1cc2occ(CC(=O)Nc3nnc(C4CC4)s3)c2cc1C | inactive | –
58 | O=C1N/C(=C/c2ccc(N3CCOCC3)o2)C(=O)N1c1ccccc1 | inconclusive: -17.9% | –
59 | COc1ccc(N2C(=O)CN(Cc3ccc(OC)c(OC)c3)C2=S)cc1 | inconclusive: 12.3% [at 9.22 µM] | –
60 | O=C1COc2ccc(C(=O)C[n+]3cccc(O)c3)cc2N1 | inactive | –
61 | CCc1ccccc1NC(=O)CN1C(=O)CCSc2ccc(S(=O)(=O)N3CCCC3)cc21 | inconclusive: -10.9% [at 46 µM] | –
62 | CCc1ccccc1NC(=O)C(C)n1c(=O)cc(C)c2c(C)nn(-c3ccccc3)c21 (stereo not given) | inconclusive: 1.28% [at 46 µM] | –
63 | O=C(NCC1([N+](=O)[O-])CN(C(=O)c2ccccc2)CN(C(=O)c2ccccc2)C1)c1ccccc1 | inconclusive: -10.4% [at 46 µM] | –
64 | O=C1C(Cl)=C(NCC2CCCO2)C(=O)N1C1CCCCC1 (stereo not given) | inactive | –
65 | Cc1nn2c(COc3ccc(NC(=O)c4ccccc4)cc3)nnc2c2ccccc12 | inconclusive: -1.31% | –
66 | O=C(C/C=N\OCc1ccc(Cl)cc1Cl)Nc1ccccc1 | inconclusive: -8.31% [at 46 µM] | –

Row | SMILES | ratio change, negative = inhibition | Potency
67 | CCOC(=O)N/N=C1\CC(C)CC(C)(C)C1 (stereo not given) | inactive | –
68 | COc1ccccc1NC(=O)c1c(Nc2ccccc2C)sc(C(=O)Nc2cccc(Cl)c2)c1N | inconclusive: -25.6% | –
69 | CC1CCCCN1C(=S)Nc1ccc(OC(F)F)cc1 (stereo not given) | – | inconclusive: 35.5 µM [fluorescent, single point]
70 | Cc1ccc(C(=O)N2CCN(c3cccc(Cl)c3)CC2)cc1C | inconclusive: -34.2% | –
71 | CC(=O)c1ccc(NC(=O)c2c(C)nn(-c3ccccc3)c2Cl)cc1 | – | inconclusive: 35.5 µM [cytotoxic, single point]
72 | CC1CC2=C(CC1/C=N/NC(N)=S)C(C)(C)CCC2 (stereo not given) | inconclusive: -2.49% | –
73 | Nc1nnc(N2CCCCC2)s1 | inconclusive: -0.201% | –
74 | CCC(C(=O)NC1CCCCC1)n1c(SCc2cccc(C)c2)nc2ccncc21 (stereo not given) | – | inconclusive: 12.6 µM [falling, single point]
75 | COCCNc1nc(-c2cccc(OC)c2)nc2ccccc12 | inactive | –
76 | O=C(CCc1ccccc1)N1CCN(c2ccccn2)CC1 | inconclusive: 9.78% | –
77 | CC1(C)Nc2ccccc2N(Cc2ccc([N+](=O)[O-])cc2)C1=O | inactive: -20.7% [at 9.22 µM] | –
78 | N#Cc1ccccc1CSc1nnc2ccc3ccccc3n12 | inactive | –
79 | Cc1noc(C)c1-c1cc(N(C)Cc2ccco2)ncn1 | inactive | –
80 | Fc1ccc(NC(=S)N/N=C/c2ccc(F)c(F)c2)cc1 | inconclusive: 12.5% [at 46 µM] | –
81 | CC1=NN(c2ccccc2)C(=O)/C1=C\c1c(C)[nH]n(-c2ccccc2)c1=O | inactive | –
82 | COC(=O)CSc1nnc(-c2ccc(OC)c(OC)c2)o1 | inconclusive: -5.11% [at 46 µM] | –
83 | NC(=O)c1nsc(C(=O)N(c2ccc(Cl)cc2)C(C(=O)NCC2CCCO2)c2cccs2)c1N (stereo not given) | – | inconclusive: 35.5 µM [rising, single point]
84 | O=C1NC(=Nc2ccccc2)S/C1=C\C=C\c1ccco1 | inactive | –
85 | CC(=O)Nc1nonc1-c1nnc(SCC(=O)Nc2cc(Cl)ccc2C)n1C | – | inconclusive: 8.91 µM [activator, partial curve, poor fit]
